These are yes or no findings as the source states them, for the method shown. Binding seen in cells or lysates may run through a third protein. A yes stands for co-enrichment or nearness to the bait. Other partners may have been found.
Biological target: Ubiquitin-protein ligase E3A (human (endogenous in Eca-109 and TE-1)) (UniProt Q05086)
Assay: affinity purification with mass spectrometry; whole-cell lysate of Eca-109 cells immunoprecipitated with UBE3A antibody or IgG, then mass spectrometry

By UniProt entry, the sequences of proteins in these tests, tags left out. Where a name states a change or a piece, a line headed by the entry shows the natural chain unless it says otherwise.
UniProt Q05086: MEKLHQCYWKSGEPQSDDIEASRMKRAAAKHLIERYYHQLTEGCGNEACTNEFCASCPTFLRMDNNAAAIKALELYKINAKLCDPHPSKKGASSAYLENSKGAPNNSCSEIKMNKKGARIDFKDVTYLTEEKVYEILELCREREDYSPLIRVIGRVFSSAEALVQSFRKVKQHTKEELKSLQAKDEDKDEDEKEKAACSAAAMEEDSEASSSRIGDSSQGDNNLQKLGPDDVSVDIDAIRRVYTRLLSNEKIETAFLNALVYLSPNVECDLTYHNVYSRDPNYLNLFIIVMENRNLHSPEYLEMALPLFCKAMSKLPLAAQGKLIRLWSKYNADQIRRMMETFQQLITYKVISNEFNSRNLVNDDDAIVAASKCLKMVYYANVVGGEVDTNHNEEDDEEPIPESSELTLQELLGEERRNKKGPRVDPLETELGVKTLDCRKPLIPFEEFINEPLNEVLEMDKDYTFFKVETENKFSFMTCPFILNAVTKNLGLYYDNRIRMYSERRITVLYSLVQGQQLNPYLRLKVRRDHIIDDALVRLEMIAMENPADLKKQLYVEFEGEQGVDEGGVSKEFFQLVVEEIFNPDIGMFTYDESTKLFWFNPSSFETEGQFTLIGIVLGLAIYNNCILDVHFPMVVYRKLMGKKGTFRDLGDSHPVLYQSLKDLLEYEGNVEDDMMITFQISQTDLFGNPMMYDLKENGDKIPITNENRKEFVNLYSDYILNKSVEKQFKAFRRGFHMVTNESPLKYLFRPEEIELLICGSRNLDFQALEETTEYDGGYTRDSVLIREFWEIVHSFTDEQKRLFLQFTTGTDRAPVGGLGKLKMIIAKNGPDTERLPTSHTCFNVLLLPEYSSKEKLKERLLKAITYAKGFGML
UniProt O15231: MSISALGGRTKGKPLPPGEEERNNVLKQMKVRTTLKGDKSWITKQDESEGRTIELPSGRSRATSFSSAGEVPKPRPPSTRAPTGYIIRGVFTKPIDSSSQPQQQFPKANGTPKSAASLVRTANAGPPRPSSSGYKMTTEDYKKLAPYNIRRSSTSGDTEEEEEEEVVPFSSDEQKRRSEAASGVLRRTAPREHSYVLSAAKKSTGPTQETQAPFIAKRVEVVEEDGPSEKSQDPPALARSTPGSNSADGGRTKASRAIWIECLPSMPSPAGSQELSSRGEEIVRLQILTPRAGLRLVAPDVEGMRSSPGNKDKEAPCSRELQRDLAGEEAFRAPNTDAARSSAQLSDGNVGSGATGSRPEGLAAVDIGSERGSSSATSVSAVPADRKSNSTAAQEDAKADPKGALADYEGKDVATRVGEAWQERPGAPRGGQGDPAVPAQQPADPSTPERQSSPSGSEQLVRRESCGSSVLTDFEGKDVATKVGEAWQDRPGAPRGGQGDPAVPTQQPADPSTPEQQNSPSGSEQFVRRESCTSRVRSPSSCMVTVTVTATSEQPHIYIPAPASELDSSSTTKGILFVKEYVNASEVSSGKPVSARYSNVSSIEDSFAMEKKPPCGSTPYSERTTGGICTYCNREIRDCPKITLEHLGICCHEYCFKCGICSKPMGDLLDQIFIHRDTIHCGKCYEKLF

binding: binds
Substance: Zinc finger protein 185 (from UniProt O15231 1-689)

From publication PMC8375240
